Mtb cholesterol medium: 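Growth of Mycobacterium tuberculosis over 4 days (cholesterol / DPPC medium with tyloxapol); the read-out is not stated. Tested at 50 µM. Higher reads as more growth inhibition (inferred: compounds with an IC50 in retests scored well above the rest). Size under these conditions: about 69,000 compounds, about 370 of them at 50% or above in at least one test.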
Mtb glucose medium: 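Growth of Mycobacterium tuberculosis over 3 days (7H9 medium with glucose and tyloxapol); the read-out is not stated. Tested at 50 µM. Higher reads as more growth inhibition (inferred: compounds with an IC50 in retests scored well above the rest). Of about 69,000 compounds tested this way, about 760 (1.1%) reached 50% or more in at least one test.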

Results are given as percent effect. The controls that fix the scale are not given in the record; negative values are as filed. The compounds are a random part of those screened. Two or more numbers in one place are separate tests of the same structure; such repeats can differ widely.

- CCOCC1CC2(CCN(C(=O)c3ccccn3)CC2)CO1.O=C(O)C(F)(F)F (configuration not stated) | Mtb cholesterol medium: -12.29%; Mtb glucose medium: -29.35%
- [H][C@]12CCN(S(=O)(=O)Cc3ccccc3)[C@@]1([H])CC[C@H](COCC)O2 | Mtb cholesterol medium: -4.893%; Mtb glucose medium: 12.16%
- Cc1cc(Cc2ccc(S(=O)(=O)N3CCOCC3)cc2)c(=O)[nH]n1 | Mtb cholesterol medium: -3.575%; Mtb glucose medium: 11.84%
- [H][C@@]12CN(Cc3ccccc3OC)C[C@]1([H])OCC(=O)N2CCOC | Mtb cholesterol medium: 11.47%; Mtb glucose medium: 15.42% and -7.208%
- Cn1ccnc1CN1CCOC[C@H]1c1nc(C(C)(C)C)co1 | Mtb cholesterol medium: 2.562%; Mtb glucose medium: 4.895% and -2.07%
- CC(C(=O)Nc1cccc(N2CCCCC2)c1)n1cncn1 (configuration not stated) | Mtb cholesterol medium: -12.43%; Mtb glucose medium: 16.48%
- Cc1cc(N2C[C@H](C3CC3)[C@@H](N)C2)nc(N2CCCCC2)n1 | Mtb cholesterol medium: -4.286%; Mtb glucose medium: 11.05% and 1.58%
- CCNC(=O)C1CCCN(C(=O)Nc2cc(C#N)ccc2OCC)C1 (configuration not stated) | Mtb cholesterol medium: 4.67%; Mtb glucose medium: 10.28%
- O=C(O)C(F)(F)F.[H][C@@]12CCN(c3cnccn3)C[C@]1([H])CN(C(=O)c1nccn1C)C2 | Mtb cholesterol medium: -8.764%; Mtb glucose medium: 5.541%
- [H][C@]12CCC(=O)N(c3ccccc3)[C@@]1([H])CCN2C(=O)c1cc(C)on1 | Mtb cholesterol medium: 1.11% and -14.09%; Mtb glucose medium: 1.435%
- CSCc1ccc(CNCCCN2CCOCC2)o1 | Mtb cholesterol medium: -9.09%; Mtb glucose medium: -18.95% and 4.582%
- COc1ccccc1C(C)(C)NC(=O)NC1CCC(O)CC1 (configuration not stated) | Mtb cholesterol medium: 5.486%; Mtb glucose medium: -0.9188%
- COCc1nn(C(C)C)c2c1CCN(Cc1nccs1)C2.O=C(O)C(F)(F)F | Mtb cholesterol medium: -25.48%; Mtb glucose medium: 10.49%
- N#CC1CCCN(S(=O)(=O)c2ccc(C(=O)NCC(F)F)cc2)C1 (configuration not stated) | Mtb cholesterol medium: -3.88%; Mtb glucose medium: 7.694%
- Cc1ccc(-c2cn[nH]c2C2CCCN(c3ccnc(C)n3)C2)cc1 (configuration not stated) | Mtb cholesterol medium: -27.71%; Mtb glucose medium: -2.923%
- O=C(CN1CCCC1Cn1cncn1)NCCC1=CCCCC1 (configuration not stated) | Mtb cholesterol medium: -0.467%; Mtb glucose medium: -2.99%
- Cc1cc(C2CCCN2C(=O)CN2CCc3ccccc32)on1 (configuration not stated) | Mtb cholesterol medium: 8.045%; Mtb glucose medium: 1.48% and 4.582%
- CC(=O)c1c(C)nn(CC(=O)Nc2ccc(Br)cc2)c1C | Mtb cholesterol medium: 2.524%; Mtb glucose medium: 59.63% and 65.27%
- COCc1cnc2n1CCN(C(=O)C1=CCCCC1)C2C (configuration not stated) | Mtb cholesterol medium: -39.78%; Mtb glucose medium: -24.76%
- Cc1cc(C(F)(F)F)nc(N2CCN3CCCC3C2)n1 (configuration not stated) | Mtb cholesterol medium: 15.71%; Mtb glucose medium: 26.95%
- COCCCNC(=O)Cc1cc(-c2ccccc2)on1 | Mtb cholesterol medium: -5.936%; Mtb glucose medium: 22.42%
- Cn1c(=O)oc2ccc(NC(=O)N3CCSCC3)cc21 | Mtb cholesterol medium: 2.843%; Mtb glucose medium: 2.569%
- CCSc1ncc(-c2nccn2CCN(C)C)cn1 | Mtb cholesterol medium: -17.6%; Mtb glucose medium: -1.953%
- CCN(CC)C(=O)Nc1ccc(N2CCSCC2)cc1C | Mtb cholesterol medium: -12.67%; Mtb glucose medium: -6.352% and 14.66%
- O=C(O)C(F)(F)F.[H][C@@]12CCN(Cc3ccoc3)[C@]1([H])CC[C@@H](C(=O)N1CCCC1)O2 | Mtb cholesterol medium: -5.229%; Mtb glucose medium: -7.052%
- Cc1noc(C)c1C1CCCN1C(=O)c1cn2ccsc2n1 (configuration not stated) | Mtb cholesterol medium: -32.87%; Mtb glucose medium: -44.01%
- CC(C)Nc1ncnc2c1CCN(C(=O)Cc1cccs1)CC2 | Mtb cholesterol medium: 0.8936%; Mtb glucose medium: 8.58%
- Cc1noc(CCCNC(=O)C2CSCN2C(=O)C(C)(C)C)n1 (configuration not stated) | Mtb cholesterol medium: 1.708%; Mtb glucose medium: -5.871% and -9.2%
- CN1CCCC1CNC(=O)CCOc1ccc(Br)cc1 (configuration not stated) | Mtb cholesterol medium: 14.36%; Mtb glucose medium: 26.55%
- NC(=O)N1CCc2ncc(CNC(=O)CC3CC3)n2CC1 | Mtb cholesterol medium: -14.96%; Mtb glucose medium: -13.47%
- O=C(CCOc1ccc(Cl)cc1)NCCCn1cccn1 | Mtb cholesterol medium: -38.54%; Mtb glucose medium: 15.68%
- Cc1nc(CN2CCCC2Cn2cncn2)no1 (configuration not stated) | Mtb cholesterol medium: -12.55%; Mtb glucose medium: -30.46%
- O=C(NCC1CC1)C1CN(C(=O)c2cnccn2)CC12CCOCC2 (configuration not stated) | Mtb cholesterol medium: 0.5161% and -23.62%; Mtb glucose medium: -15.52% and -10.72%
- Cn1c(-c2ccccc2Cl)nc2cc(C(=O)NCC3(C)COC3)cnc21 | Mtb cholesterol medium: 9.389%; Mtb glucose medium: -4.218% and -27.91%
- O=C(O)C(F)(F)F.[H][C@@]12CCN(CC(C)C)C[C@@]1([H])[C@H](C(=O)N1CCCO1)CCO2 | Mtb cholesterol medium: -8.432%; Mtb glucose medium: 16.18%
- CC(=O)N1CCN(CCNS(=O)(=O)c2cc(F)ccc2C)CC1 | Mtb cholesterol medium: -2.063%; Mtb glucose medium: -0.5067%
- C[C@@H]1CN(C(=O)c2cc(COc3ccc4c(c3)OCO4)[nH]n2)C[C@H](C)O1 | Mtb cholesterol medium: 22.16% and 13.69%; Mtb glucose medium: 8.188%
- O=C(Nc1ccccc1F)N1CCN(Cc2noc(C3CC3)n2)CC1 | Mtb cholesterol medium: 0.9933%; Mtb glucose medium: -5.245%
- COc1ccc(NC(=O)Cn2ccc3c(=O)n(C)ccc32)cc1OC | Mtb cholesterol medium: 13.68%; Mtb glucose medium: 35.01%

The first 2 entries again:

* CCOCC1CC2(CCN(C(=O)c3ccccn3)CC2)CO1.O=C(O)C(F)(F)F (configuration not stated) : Mtb cholesterol medium: -12.29%; Mtb glucose medium: -29.35%
* [H][C@]12CCN(S(=O)(=O)Cc3ccccc3)[C@@]1([H])CC[C@H](COCC)O2 : Mtb cholesterol medium: -4.893%; Mtb glucose medium: 12.16%

Measurements from “University of Dundee, Small-Polar-MMV Screening Library” (2021), ChEMBL document CHEMBL3988442.